# Screening data, single-dose tests

From ChEMBL document CHEMBL3988442, “University of Dundee, Small-Polar-MMV Screening Library” (2021).

A: 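Whole-cell growth test on Mycobacterium tuberculosis, read after 4 days in a medium based on cholesterol and the lipid DPPC; the read-out is not stated. Concentration: 50 µM. Higher reads as more growth inhibition (inferred: compounds with an IC50 in retests scored well above the rest). About 69,000 compounds were tested under these conditions; 0.54% (about 370) showed 50% or more at least once.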
B: 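Growth of Mycobacterium tuberculosis over 3 days (7H9 medium with glucose and tyloxapol); the read-out is not stated. Concentration: 50 µM. The record gives no direction; compounds that gave an IC50 in retests scored well above the rest, so higher reads as more growth inhibition. About 69,000 compounds were tested under these conditions; 1.1% (about 760) showed 50% or more at least once.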

The filed quantity is “Percent Effect” (%). The controls that fix the scale are not given in the record; negative values are as filed. Compounds were drawn at random from those tested, without regard to their results. Two or more numbers in one place are separate tests of the same structure; such repeats can differ widely.

Compound	A	B
CCOC(=O)C1(O)CCN(C(=O)Nc2cccc(F)c2)CC1	-0.07003	-28.35
O=C(c1ccc(F)c(F)c1)N1CCCC1CN1CCCC1 (stereo unspecified)	-10.47	-7.142 & -30.54
COC(=O)c1ccc(NC(C)c2ccc3c(c2)CC(=O)N3)nn1 (stereo unspecified)	-4.595 & -8.732	13.39
c1ccc(CN(Cc2ncc[nH]2)Cc2nccs2)cc1	-9.761	-2.706
COc1cccc(S(=O)(=O)CCN2CCC3(CC2)OCCO3)c1	-3.636	25.96
COc1ccc(C)c(NC(=O)NCc2ncnn2C)c1	-28.97	6.142
Cc1ccccc1C(C(=O)N(Cc1cnn(C)c1)CC(C)C)N(C)C (stereo unspecified)	-21.64	-15.76
Cc1cc(-c2ccccc2C(=O)O)nc(C2CCCN(C(C)C)C2)n1 (stereo unspecified)	21.77	9.012
CC(C)CS(=O)(=O)CCNC(=O)Nc1cccc2ncccc12	-1.71	-7.684
Cc1cc(N2CCc3c(ncn3C)C2)n2nc(C(F)(F)F)nc2n1	-9.031	-43.35
CCc1ccc(-n2nnc(C(=O)O)c2-c2ccccn2)cc1	-17.34	-0.1145
Cc1ccc(CN2CCOC3(COCCN(CCN(C)C)C3)C2)o1.O=C(O)C(F)(F)F.O=C(O)C(F)(F)F.O=C(O)C(F)(F)F (stereo unspecified)	-13.12	11.56
Oc1cc(CNCCN2CCCCC2)nc2c(F)cccc12	-0.6079	-19.44
O=C(O)C(F)(F)F.O=C1CC2(CCN(CCO)C2)CN1c1cccc(F)c1 (stereo unspecified)	-5.155 & -0.9205	-10.66 & 2.881
CN1CCCCC1c1ncc2c(n1)CCN(CCCc1ccccc1)C2 (stereo unspecified)	37.61	31.34
[H][C@]12CC[C@]([H])(CN(S(C)(=O)=O)C1)N(C(=O)Cn1nc3ccccc3n1)C2	-23.15	-50.99
Cc1cnc2n(c1=O)CC(C(=O)NCc1ccccc1Cl)CS2 (stereo unspecified)	-8.95	-0.9189
CNc1nc(C)c(C(=O)N2CCCCC2CCN2CCOCC2)s1 (stereo unspecified)	-12.09	-1.269
Cc1cc(F)ccc1CN1CCCC2(C1)OCCO2	6.139 & 13.19	0.3068
COc1ccc(C(=O)Cn2cnnc2[S+](C)[O-])cc1Cl (stereo unspecified)	3.394	-20.55 & 4.336
CCn1cc(CN2CCCN(C(=O)C3(C)CCOCC3)CC2)cn1	0.2267	-3.185 & 0.9551
CC(C(=O)NCc1ccc(N2CCCCCC2)nc1)n1cncn1 (stereo unspecified)	-12.03	-4.593 & -5.19
Cc1ccc(C(=O)NS(=O)(=O)c2cc(F)ccc2F)c(=O)[nH]1	2.492	-43.17 & -2.288
COCC(=O)Nc1ccc(-c2noc([C@@H]3CCCN3)n2)cn1	-11.32	-6.123 & -37.58
CCc1nc(CCNC(=O)Nc2cc(C(N)=O)sc2C)cs1	-26.14	-12.39
CCn1cnc(NC(=O)N2CCC(c3ccc(Cl)cc3)C2)n1 (stereo unspecified)	-7.785	3.739 & -8.554
CC(C(=O)N1CCCN(Cc2ccc(C#N)cc2)CC1)n1cccn1 (stereo unspecified)	-18.61	-5.6
CC(C)(C)c1ncc(C(=O)NCCNC(=O)c2cccs2)s1	-3.263	-33.5
CCn1ncc(Br)c1CN(C)S(=O)(=O)c1ccc(C)cc1	-25.06	20.84
Cc1noc(C)c1CN1CCc2ncc(CN(C)C)n2CC1.O=C(O)C(F)(F)F.O=C(O)C(F)(F)F	5.245	-8.979 & 0.1745
O=C(O)CC[C@@H]1CN(c2ccncc2)CC[C@@H]1N1CCOCC1	-14.25	4.078
CCOc1cccc(COC(=O)c2scnc2C)n1	-0.6791	17.81
NC(=O)c1cnn2c1NCC(CNCCc1ccco1)C2 (stereo unspecified)	-3.529	-5.408
c1ccc2oc(CN3CCCCC3Cn3cncn3)nc2c1 (stereo unspecified)	19.27	6.192 & -3.725
Cc1ccc(CN(C)C(=O)CCNS(=O)(=O)c2cccnc2)cc1	-10.07 & -25.08	-23.26
Cc1nc2sccn2c1C(=O)N1CCn2nc(C(=O)NC3CC3)cc2C1	14.24	22.84
CN(C)c1ccc(C(=O)N2CCCc3cc(OC(F)(F)F)ccc32)cn1	20.22	22.12
COCC(=O)N1CCCN(C(=O)C2Cc3ccccc3CN2C)CC1 (stereo unspecified)	-16.94	-41.8
COCCC1(C(=O)O)CCCN(CC(=O)NCCc2ccccc2)C1 (stereo unspecified)	4.851	-40.81
COc1c(CNC(c2nccn2C)C(C)C)c(C)nn1C (stereo unspecified)	-1.947	-25.23
CC(=O)NCC(=O)NCC1(O)CCN(c2cnccn2)C1 (stereo unspecified)	-8.365 & 0.2908	17.08
O=C(O)C(F)(F)F.O=C(O)C(F)(F)F.[H][C@@]12CCC(=O)N(c3ccccc3)[C@]1([H])CCN2Cc1ccncc1	-11.21	-18.07

For reference, 4 entries once more:

Compound	A	B
O=C(c1ccc(F)c(F)c1)N1CCCC1CN1CCCC1 (stereo unspecified)	-10.47	-7.142 & -30.54
CC(C(=O)NCc1ccc(N2CCCCCC2)nc1)n1cncn1 (stereo unspecified)	-12.03	-4.593 & -5.19
[H][C@]12CC[C@]([H])(CN(S(C)(=O)=O)C1)N(C(=O)Cn1nc3ccccc3n1)C2	-23.15	-50.99
CC(C(=O)N1CCCN(Cc2ccc(C#N)cc2)CC1)n1cccn1 (stereo unspecified)	-18.61	-5.6